Test results: publication PMC5344305
These are yes or no findings as the source states them, for the method shown. Binding seen in cells or lysates may run through a third protein.

Target: T1, palmitoyl-protein thioesterase-1 (PPT1) (human (endogenous in HEK-293)) (UniProt P50897)
T1 sequence: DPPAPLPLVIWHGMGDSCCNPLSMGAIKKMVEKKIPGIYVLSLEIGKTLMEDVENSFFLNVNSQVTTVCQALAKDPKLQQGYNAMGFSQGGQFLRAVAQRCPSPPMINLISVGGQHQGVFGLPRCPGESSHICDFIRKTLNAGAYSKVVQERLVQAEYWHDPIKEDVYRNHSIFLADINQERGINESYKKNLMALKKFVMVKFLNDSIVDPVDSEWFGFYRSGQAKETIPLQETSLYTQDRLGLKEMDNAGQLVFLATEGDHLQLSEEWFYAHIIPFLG
Test: co-IP; HEK-293 cells transfected with tagged V0a1 constructs, lysed in RIPA buffer, diluted in PBS with 0.5% NP-40; AP-2, AP-3 or PPT1 antibody overnight at 4 °C, TrueBlot IP beads, western blot; called pull-down by the paper

**Q.** FLAG-tagged V0a1 C25A mutant was tested. Which binding did it give?
**A.** no binding
